Results reported in US20050181462A1, “Mutant androgen receptor, cancer cells expressing the same, a method of producing them and use thereof” (priority 2002, published 2005).
At least one compound was matched to its structure with a doubt left.

Tests used:
LNCaP-FGC = assay: Culture of LNCaP-FGC in broth containing bicalutamide (establishing LNCaP-cxD); type: cell-based, human; conditions: 0.1 and 1 μM bicalutamide, RPMI1640+10% DCC-FBS, initial phase before 6 to 13 weeks
LNCaP-FGC cells [1] = assay: Effect on proliferation of LNCaP-FGC cells (cell count); type: cell-based, human; conditions: 0.1-30 μM bicalutamide, cells counted 3 days after addition, RPMI1640+10% DCC-FBS
LNCaP-cxD11 cells [2] = assay: PSA production by LNCaP-cxD11 cells (culture supernatant); type: cell-based, human; conditions: 0.1-30 μM bicalutamide, supernatant PSA 3 days after addition
LNCaP-cxD2 cells [3] = assay: Effect on proliferation of LNCaP-cxD2 cells (cell count); type: cell-based, human; conditions: 0.1-30 μM bicalutamide, cells counted 3 days after addition, RPMI1640+10% DCC-FBS
LNCaP-cxD2 cells [4] = assay: PSA production by LNCaP-cxD2 cells (culture supernatant); type: cell-based, human; conditions: 0.1-30 μM bicalutamide, supernatant PSA 3 days after addition
LNCaP-FGC cells [5] = assay: PSA production by LNCaP-FGC cells (culture supernatant); type: cell-based, human; conditions: 0.1-30 μM bicalutamide, supernatant PSA 3 days after addition
LNCaP-cxD11 cells [6] = assay: Effect on proliferation of LNCaP-cxD11 cells (cell count); type: cell-based, human; conditions: 0.1-30 μM bicalutamide, cells counted 3 days after addition, RPMI1640+10% DCC-FBS
[7] = tested on: mutant ARs with missense mutations of the 877th amino acid; conditions: Veldscholte et al. 1990; cited from earlier work

SMILES | proliferation of LNCaP-FGC in culture broth containing bicalutamide (LNCaP-FGC) | proliferation of parent line LNCaP-FGC (LNCaP-FGC cells [1]) | PSA production in LNCaP-cxD11 (LNCaP-cxD11 cells [2]) | proliferation of LNCaP-cxD2 (LNCaP-cxD2 cells [3]) | PSA production in LNCaP-cxD2 (LNCaP-cxD2 cells [4]) | PSA production in parent line LNCaP-FGC (LNCaP-FGC cells [5]) | proliferation of LNCaP-cxD11 (LNCaP-cxD11 cells [6]) | action on cancer cell proliferation via AR mutated at the 877th amino acid [7]
CC(O)(CS(=O)(=O)c1ccc(F)cc1)C(=O)Nc1ccc(C#N)c(C(F)(F)F)c1 (centres unmarked) [bicalutamide] | does not proliferate initially | significantly suppressed | significantly promoted | significantly promoted | significantly promoted | significantly suppressed | significantly promoted | 
CC(C)C(=O)Nc1ccc([N+](=O)[O-])c(C(F)(F)F)c1 [flutamide] |  |  |  |  |  |  |  | stimulate cancer cell proliferation
